# No constants are given. Whether binding was seen depends on the method and setting. For some of these results: In cells and extracts the contact can be indirect. Some results given as binding are weak or reduced against the parent protein; the word gives no strength. For some of these results: Where a sequence is shown, tags or fusion partners need not be part of it.
# B1: Ysh1 (full length, untagged) (enzyme, UniProt Q06224 1-779)
# chain: MERTNTTTFKFFSLGGSNEVGRSCHILQYKGKTVMLDAGIHPAYQGLASLPFYDEFDLSKVDILLISHFHLDHAASLPYVMQRTNFQGRVFMTHPTKAIYRWLLRDFVRVTSIGSSSSSMGTKDEGLFSDEDLVDSFDKIETVDYHSTVDVNGIKFTAFHAGHVLGAAMFQIEIAGLRVLFTGDYSREVDRHLNSAEVPPLSSNVLIVESTFGTATHEPRLNRERKLTQLIHSTVMRGGRVLLPVFALGRAQEIMLILDEYWSQHADELGGGQVPIFYASNLAKKCMSVFQTYVNMMNDDIRKKFRDSQTNPFIFKNISYLRNLEDFQDFGPSVMLASPGMLQSGLSRDLLERWCPEDKNLVLITGYSIEGTMAKFIMLEPDTIPSINNPEITIPRRCQVEEISFAAHVDFQENLEFIEKISAPNIILVHGEANPMGRLKSALLSNFASLKGTDNEVHVFNPRNCVEVDLEFQGVKVAKAVGNIVNEIYKEENVEIKEEIAAKIEPIKEENEDNLDSQAEKGLVDEEEHKDIVVSGILVSDDKNFELDFLSLSDLREHHPDLSTTILRERQSVRVNCKKELIYWHILQMFGEAEVLQDDDRVTNQEPKVKEESKDNLTNTGKLILQIMGDIKLTIVNTLAVVEWTQDLMNDTVADSIIAILMNVDSAPASVKLSSHSCDDHDHNNVQSNAQGKIDEVERVKQISRLFKEQFGDCFTLFLNKDEYASNKEETITGVVTIGKSTAKIDFNNMKILECNSNPLKGRVESLLNIGGNLVTPLC
# B2: Cft2 (full length, untagged) (protein, UniProt Q12102 1-859)
# chain: MTYKYNCCDDGSGTTVGSVVRFDNVTLLIDPGWNPSKVSYEQCIKYWEKVIPEIDVIILSQPTIECLGAHSLLYYNFTSHFISRIQVYATLPVINLGRVSTIDSYASAGVIGPYDTNKLDLEDIEISFDHIVPLKYSQLVDLRSRYDGLTLLAYNAGVCPGGSIWCISTYSEKLVYAKRWNHTRDNILNAASILDATGKPLSTLMRPSAIITTLDRFGSSQPFKKRSKIFKDTLKKGLSSDGSVIIPVDMSGKFLDLFTQVHELLFESTKINAHTQVPVLILSYARGRTLTYAKSMLEWLSPSLLKTWENRNNTSPFEIGSRIKIIAPNELSKYPGSKICFVSEVGALINEVIIKVGNSEKTTLILTKPSFECASSLDKILEIVEQDERNWKTFPEDGKSFLCDNYISIDTIKEEPLSKEETEAFKVQLKEKKRDRNKKILLVKRESKKLANGNAIIDDTNGERAMRNQDILVENVNGVPPIDHIMGGDEDDDEEEENDNLLNLLKDNSEKSAAKKNTEVPVDIIIQPSAASKHKMFPFNPAKIKKDDYGTVVDFTMFLPDDSDNVNQNSRKRPLKDGAKTTSPVNEEDNKNEEEDGYNMSDPISKRSKHRASRYSGFSGTGEAENFDNLDYLKIDKTLSKRTISTVNVQLKCSVVILNLQSLVDQRSASIIWPSLKSRKIVLSAPKQIQNEEITAKLIKKNIEVVNMPLNKIVEFSTTIKTLDISIDSNLDNLLKWQRISDSYTVATVVGRLVKESLPQVNNHQKTASRSKLVLKPLHGSSRSHKTGALSIGDVRLAQLKKLLTEKNYIAEFKGEGTLVINEKVAVRKINDAETIIDGTPSELFDTVKKLVTDMLAKI
# B3: Ysh1 catalytic domain (residues 1–473), crystallized (domain or fragment, UniProt Q06224 1-473)
# chain: MERTNTTTFKFFSLGGSNEVGRSCHILQYKGKTVMLDAGIHPAYQGLASLPFYDEFDLSKVDILLISHFHLDHAASLPYVMQRTNFQGRVFMTHPTKAIYRWLLRDFVRVTSIGSSSSSMGTKDEGLFSDEDLVDSFDKIETVDYHSTVDVNGIKFTAFHAGHVLGAAMFQIEIAGLRVLFTGDYSREVDRHLNSAEVPPLSSNVLIVESTFGTATHEPRLNRERKLTQLIHSTVMRGGRVLLPVFALGRAQEIMLILDEYWSQHADELGGGQVPIFYASNLAKKCMSVFQTYVNMMNDDIRKKFRDSQTNPFIFKNISYLRNLEDFQDFGPSVMLASPGMLQSGLSRDLLERWCPEDKNLVLITGYSIEGTMAKFIMLEPDTIPSINNPEITIPRRCQVEEISFAAHVDFQENLEFIEKISAPNIILVHGEANPMGRLKSALLSNFASLKGTDNEVHVFNPRNCVEVDLEFQ
# Columns and labels:
# [1] = molecular target: T1, Mpe1-3C-SII (full length, C-terminal StrepII tag) (S. cerevisiae) (UniProt P35728); assay: anion exchange chromatography; complexes identified by the Strep-Tactin pull-down subjected to anion exchange chromatography; SDS-PAGE of what stayed associated; both purified
# T1 sequence: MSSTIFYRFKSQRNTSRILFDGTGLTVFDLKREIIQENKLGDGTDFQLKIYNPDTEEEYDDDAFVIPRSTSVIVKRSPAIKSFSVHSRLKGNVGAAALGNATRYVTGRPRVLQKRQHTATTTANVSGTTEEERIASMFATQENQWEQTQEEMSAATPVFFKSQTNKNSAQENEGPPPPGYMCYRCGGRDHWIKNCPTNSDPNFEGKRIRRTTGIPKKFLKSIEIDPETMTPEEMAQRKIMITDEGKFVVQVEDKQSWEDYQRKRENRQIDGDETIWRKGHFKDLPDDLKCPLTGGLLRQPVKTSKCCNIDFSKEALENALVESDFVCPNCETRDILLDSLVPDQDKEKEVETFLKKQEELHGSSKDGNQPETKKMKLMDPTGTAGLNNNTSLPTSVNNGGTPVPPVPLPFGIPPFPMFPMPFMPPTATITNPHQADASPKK
# [2] = molecular target: T1, Mpe1-3C-SII (full length, C-terminal StrepII tag) (S. cerevisiae); assay: cryo-EM structure; cross-linked Ysh1-Mpe1-Yjr141w at 350 nM in 10 mM HEPES pH 7.9, 150 mM NaCl; Volta phase plate; anisotropic 4.8 Å map filtered to 6 Å; crystal structure docked; both purified
# [3] = molecular target: T1, Mpe1-3C-SII (full length, C-terminal StrepII tag) (S. cerevisiae); assay: pull-down; pairs of Ysh1 and Mpe1 constructs co-expressed with full-length Cft2 in insect cells (baculovirus); StrepII-tagged Mpe1 constructs captured from cell lysates on Strep-Tactin resin; SDS-PAGE
# [4] = molecular target: T1, Mpe1-3C-SII (full length, C-terminal StrepII tag) (S. cerevisiae); assay: cross-linking; purified Ysh1-Mpe1, Ysh1-Yjr141w and Ysh1-Mpe1-Yjr141w complexes cross-linked with DSBU (BuUrBu) or DSS H12/D12, 45 min, 37°C, 100- or 50-fold excess; trypsin digest, LC-MS/MS; both purified
# [5] = molecular target: T2, SII-3C-Yjr141w (N-terminal StrepII tag) (S. cerevisiae) (UniProt P47172); assay: as above
# T2 sequence: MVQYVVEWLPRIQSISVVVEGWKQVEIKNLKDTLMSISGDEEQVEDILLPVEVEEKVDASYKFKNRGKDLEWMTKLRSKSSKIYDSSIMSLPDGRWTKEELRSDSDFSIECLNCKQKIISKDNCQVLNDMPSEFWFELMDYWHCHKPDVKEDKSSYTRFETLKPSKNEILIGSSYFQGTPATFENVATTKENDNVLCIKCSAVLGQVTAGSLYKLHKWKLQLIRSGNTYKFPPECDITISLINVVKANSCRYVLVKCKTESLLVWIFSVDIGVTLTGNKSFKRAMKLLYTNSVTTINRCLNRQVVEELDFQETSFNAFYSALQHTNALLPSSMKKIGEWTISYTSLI
# [6] = molecular target: T1, Mpe1-3C-SII (full length, C-terminal StrepII tag) (S. cerevisiae); assay: HDX-MS; purified Ysh1-Mpe1, Ysh1-Yjr141w and Ysh1-Mpe1-Yjr141w complexes; ~95% D2O, 10 mM HEPES pH 7.9, 150 mM NaCl, 1 mM TCEP, 23°C; 0.3, 3, 30 and 300 s in triplicate; difference plots of Ysh1 peptides with and without a partner; both purified
# [7] = molecular target: T1, Mpe1-3C-SII (full length, C-terminal StrepII tag) (S. cerevisiae); assay: co-purification (StrepTactin affinity, anion exchange, size exclusion chromatography); subunits co-expressed in Sf9 cells; complex captured by the one StrepII-tagged subunit, Mono Q 100-1000 mM NaCl gradient, Superose 6 Increase in 10 mM HEPES pH 7.9, 150 mM NaCl, 1.0 mM TCEP; SDS-PAGE; both purified
# [8] = molecular target: T3, Pfs2-3C-SII (S. cerevisiae) (UniProt P42841); assay: as above
# T3 sequence: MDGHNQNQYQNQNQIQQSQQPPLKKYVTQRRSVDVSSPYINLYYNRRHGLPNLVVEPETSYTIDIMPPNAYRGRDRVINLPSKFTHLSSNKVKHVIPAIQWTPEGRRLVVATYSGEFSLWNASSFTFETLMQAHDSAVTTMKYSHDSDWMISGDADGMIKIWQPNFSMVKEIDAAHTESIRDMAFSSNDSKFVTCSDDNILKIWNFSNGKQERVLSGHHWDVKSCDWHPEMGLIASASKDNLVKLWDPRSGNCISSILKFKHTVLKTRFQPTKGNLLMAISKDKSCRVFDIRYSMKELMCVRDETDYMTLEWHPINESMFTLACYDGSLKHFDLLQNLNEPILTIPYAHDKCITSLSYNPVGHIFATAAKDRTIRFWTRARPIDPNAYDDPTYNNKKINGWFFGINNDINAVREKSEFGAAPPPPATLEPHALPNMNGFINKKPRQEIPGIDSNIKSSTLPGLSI
# [9] = molecular target: T2, SII-3C-Yjr141w (N-terminal StrepII tag) (S. cerevisiae); assay: as above
# [10] = molecular target: T4, Ysh1 (full length, untagged) (S. cerevisiae) (UniProt Q06224); assay: pull-down; pairs of Ysh1 and Mpe1 constructs co-expressed with full-length Cft2 in insect cells (baculovirus); StrepII-tagged Mpe1 constructs captured from cell lysates on Strep-Tactin resin; SDS-PAGE
# T4 sequence: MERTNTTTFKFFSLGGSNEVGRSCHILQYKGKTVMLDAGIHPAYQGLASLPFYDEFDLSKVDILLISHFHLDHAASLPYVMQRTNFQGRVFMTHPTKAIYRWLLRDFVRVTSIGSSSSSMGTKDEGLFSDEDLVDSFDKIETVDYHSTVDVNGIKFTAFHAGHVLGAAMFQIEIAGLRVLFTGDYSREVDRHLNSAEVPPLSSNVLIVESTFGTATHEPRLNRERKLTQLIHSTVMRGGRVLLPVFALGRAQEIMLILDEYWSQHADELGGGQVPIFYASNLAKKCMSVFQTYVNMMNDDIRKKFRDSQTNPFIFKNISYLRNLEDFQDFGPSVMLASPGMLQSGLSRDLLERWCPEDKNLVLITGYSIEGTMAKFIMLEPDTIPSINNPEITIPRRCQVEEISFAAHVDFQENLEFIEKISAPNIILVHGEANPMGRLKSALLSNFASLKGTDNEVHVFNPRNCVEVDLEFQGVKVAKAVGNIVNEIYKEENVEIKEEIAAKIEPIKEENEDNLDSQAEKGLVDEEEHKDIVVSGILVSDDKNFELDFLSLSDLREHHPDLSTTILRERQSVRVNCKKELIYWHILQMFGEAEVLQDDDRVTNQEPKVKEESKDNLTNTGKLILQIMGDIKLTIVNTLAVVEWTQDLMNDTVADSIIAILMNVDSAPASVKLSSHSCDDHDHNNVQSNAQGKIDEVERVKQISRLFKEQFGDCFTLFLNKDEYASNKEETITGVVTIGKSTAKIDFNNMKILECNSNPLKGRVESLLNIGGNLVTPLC
# [11] = molecular target: T5, Mpe1 UBL domain (residues 1–120), crystallized (S. cerevisiae) (UniProt P35728); assay: crystal structure; co-expressed, purified Ysh1-Mpe1 complex at 8.3 mg/ml in 10 mM HEPES pH 7.9, 150 mM NaCl, 1.0 mM TCEP; sitting drop, 26% w/v PEG 3000, 0.1 M CHES pH 8.7, room temperature; 2.3 Å; both purified
# T5 sequence: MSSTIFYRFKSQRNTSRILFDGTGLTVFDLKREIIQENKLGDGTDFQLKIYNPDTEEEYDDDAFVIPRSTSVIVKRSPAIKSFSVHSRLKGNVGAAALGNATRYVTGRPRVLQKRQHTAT
binder,measurement,setting,value
B1,binding,[1],binds
same,binding,[2],binds
same,binding,[3],binds
same,binding,[4],binds
same,binding,[5],binds
same,binding,[6],binds
same,binding,[7],binds
same,binding,[8],binds
same,binding,[9],binds
B2,binding,[3],binds
same,binding,[10],binds weakly
same,binding,[8],binds
B3,binding,[11],binds
